Source: PubChem BioAssay AID1159592 (NIAID, 2016)
Screen: 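Which core TLR components make p65 move nuclear in R848-treated mouse macrophages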. Cells: RAW264.7 macrophages from mouse bearing reporters for p65 (GFP) and the Tnf promoter (mCherry). Reagents: single siRNA against mouse genes. Time to read-out: 48 to 72 hours after siRNA transfection. Challenge: R848 TLR ligand for 40 minutes before fixation; dose not given. Measured: 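Nuclear over cytoplasmic GFP-p65 signal imaged 40 minutes after R848, plate-normalised by median and MAD, given as robust z versus negative controls, mean of replicates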. Scale: NF-kB translocation z-score: higher = more p65 moved into the nucleus than in negative-control wells. Rule for the call: 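Active when the replicate-mean z lies above 1.5 or below -1.5; the depositor also grades absolute z in steps of 1, 1.5, 2 and 2.5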. Meaning of the calls: active = strong change, either direction; inactive = little change.
Here is an unselected part of 756 reagents. In the full data, 147 (19%) got an active call. 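Active covers both loss and gain of p65 entry; negative z means weaker NF-kB activation, positive means more nuclear p65.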 Reagents against one gene are numbered here. The record does not give: the amount of reagent.

{"Target gene": "Map3k14 (mitogen-activated protein kinase kinase kinase 14)", "siRNA no.": 1, "NF-kB translocation z-score, replicate mean": -0.251, "outcome": "inactive"}
{"Target gene": "Map3k14 (mitogen-activated protein kinase kinase kinase 14)", "siRNA no.": 2, "NF-kB translocation z-score, replicate mean": 0.315, "outcome": "inactive"}
{"Target gene": "Map3k14 (mitogen-activated protein kinase kinase kinase 14)", "siRNA no.": 3, "NF-kB translocation z-score, replicate mean": -0.618, "outcome": "inactive"}
{"Target gene": "Map3k14 (mitogen-activated protein kinase kinase kinase 14)", "siRNA no.": 4, "NF-kB translocation z-score, replicate mean": -0.788, "outcome": "inactive"}
{"Target gene": "Map3k14 (mitogen-activated protein kinase kinase kinase 14)", "siRNA no.": 5, "NF-kB translocation z-score, replicate mean": -3.49, "outcome": "active"}
{"Target gene": "Map3k14 (mitogen-activated protein kinase kinase kinase 14)", "siRNA no.": 6, "NF-kB translocation z-score, replicate mean": -1.47, "outcome": "inactive"}
{"Target gene": "Nfkb2", "siRNA no.": 1, "NF-kB translocation z-score, replicate mean": 0.42, "outcome": "inactive"}
{"Target gene": "Nfkb2", "siRNA no.": 2, "NF-kB translocation z-score, replicate mean": -0.333, "outcome": "inactive"}
{"Target gene": "Nfkb2", "siRNA no.": 3, "NF-kB translocation z-score, replicate mean": 0.729, "outcome": "inactive"}
{"Target gene": "Nfkb2", "siRNA no.": 4, "NF-kB translocation z-score, replicate mean": 1.17, "outcome": "inactive"}
{"Target gene": "Nfkb2", "siRNA no.": 5, "NF-kB translocation z-score, replicate mean": -1.66, "outcome": "active"}
{"Target gene": "Nfkb2", "siRNA no.": 6, "NF-kB translocation z-score, replicate mean": -0.794, "outcome": "inactive"}
{"Target gene": "Cd14 (CD14 antigen)", "siRNA no.": 1, "NF-kB translocation z-score, replicate mean": -0.712, "outcome": "inactive"}
{"Target gene": "Cd14 (CD14 antigen)", "siRNA no.": 2, "NF-kB translocation z-score, replicate mean": -2.52, "outcome": "active"}
{"Target gene": "Cd14 (CD14 antigen)", "siRNA no.": 3, "NF-kB translocation z-score, replicate mean": -2.47, "outcome": "active"}
{"Target gene": "Cd14 (CD14 antigen)", "siRNA no.": 4, "NF-kB translocation z-score, replicate mean": -2.72, "outcome": "active"}
{"Target gene": "Cd14 (CD14 antigen)", "siRNA no.": 5, "NF-kB translocation z-score, replicate mean": -0.508, "outcome": "inactive"}
{"Target gene": "Cd14 (CD14 antigen)", "siRNA no.": 6, "NF-kB translocation z-score, replicate mean": 0.478, "outcome": "inactive"}
{"Target gene": "Elk4 (ETS transcription factor ELK4)", "siRNA no.": 1, "NF-kB translocation z-score, replicate mean": -2, "outcome": "active"}
{"Target gene": "Elk4 (ETS transcription factor ELK4)", "siRNA no.": 2, "NF-kB translocation z-score, replicate mean": -0.24, "outcome": "inactive"}
{"Target gene": "Elk4 (ETS transcription factor ELK4)", "siRNA no.": 3, "NF-kB translocation z-score, replicate mean": -0.518, "outcome": "inactive"}
{"Target gene": "Elk4 (ETS transcription factor ELK4)", "siRNA no.": 4, "NF-kB translocation z-score, replicate mean": -0.136, "outcome": "inactive"}
{"Target gene": "Elk4 (ETS transcription factor ELK4)", "siRNA no.": 5, "NF-kB translocation z-score, replicate mean": 0.0152, "outcome": "inactive"}
{"Target gene": "Elk4 (ETS transcription factor ELK4)", "siRNA no.": 6, "NF-kB translocation z-score, replicate mean": -0.742, "outcome": "inactive"}
{"Target gene": "Crebbp (CREB binding protein)", "siRNA no.": 1, "NF-kB translocation z-score, replicate mean": 0.106, "outcome": "inactive"}
{"Target gene": "Crebbp (CREB binding protein)", "siRNA no.": 2, "NF-kB translocation z-score, replicate mean": -2.25, "outcome": "active"}
{"Target gene": "Crebbp (CREB binding protein)", "siRNA no.": 3, "NF-kB translocation z-score, replicate mean": -1.8, "outcome": "active"}
{"Target gene": "Crebbp (CREB binding protein)", "siRNA no.": 4, "NF-kB translocation z-score, replicate mean": -0.722, "outcome": "inactive"}
{"Target gene": "Crebbp (CREB binding protein)", "siRNA no.": 5, "NF-kB translocation z-score, replicate mean": -3.6, "outcome": "active"}
{"Target gene": "Crebbp (CREB binding protein)", "siRNA no.": 6, "NF-kB translocation z-score, replicate mean": -1.21, "outcome": "inactive"}
{"Target gene": "Ly86 (lymphocyte antigen 86)", "siRNA no.": 1, "NF-kB translocation z-score, replicate mean": 0.448, "outcome": "inactive"}
{"Target gene": "Ly86 (lymphocyte antigen 86)", "siRNA no.": 2, "NF-kB translocation z-score, replicate mean": -1.87, "outcome": "active"}
{"Target gene": "Ly86 (lymphocyte antigen 86)", "siRNA no.": 3, "NF-kB translocation z-score, replicate mean": -0.13, "outcome": "inactive"}
{"Target gene": "Ly86 (lymphocyte antigen 86)", "siRNA no.": 4, "NF-kB translocation z-score, replicate mean": -1.19, "outcome": "inactive"}
{"Target gene": "Ly86 (lymphocyte antigen 86)", "siRNA no.": 5, "NF-kB translocation z-score, replicate mean": 1.14, "outcome": "inactive"}
{"Target gene": "Ly86 (lymphocyte antigen 86)", "siRNA no.": 6, "NF-kB translocation z-score, replicate mean": 0.67, "outcome": "inactive"}
{"Target gene": "Ube2n (ubiquitin-conjugating enzyme E2N)", "siRNA no.": 1, "NF-kB translocation z-score, replicate mean": -0.161, "outcome": "inactive"}
{"Target gene": "Ube2n (ubiquitin-conjugating enzyme E2N)", "siRNA no.": 2, "NF-kB translocation z-score, replicate mean": -1.09, "outcome": "inactive"}
{"Target gene": "Ube2n (ubiquitin-conjugating enzyme E2N)", "siRNA no.": 3, "NF-kB translocation z-score, replicate mean": 0.455, "outcome": "inactive"}
{"Target gene": "Ube2n (ubiquitin-conjugating enzyme E2N)", "siRNA no.": 4, "NF-kB translocation z-score, replicate mean": 0.23, "outcome": "inactive"}
{"Target gene": "Ube2n (ubiquitin-conjugating enzyme E2N)", "siRNA no.": 5, "NF-kB translocation z-score, replicate mean": -1.42, "outcome": "inactive"}
{"Target gene": "Ube2n (ubiquitin-conjugating enzyme E2N)", "siRNA no.": 6, "NF-kB translocation z-score, replicate mean": 0.101, "outcome": "inactive"}
{"Target gene": "Mapk1 (mitogen-activated protein kinase 1)", "siRNA no.": 1, "NF-kB translocation z-score, replicate mean": -0.772, "outcome": "inactive"}
{"Target gene": "Mapk1 (mitogen-activated protein kinase 1)", "siRNA no.": 2, "NF-kB translocation z-score, replicate mean": -2.49, "outcome": "active"}
{"Target gene": "Mapk1 (mitogen-activated protein kinase 1)", "siRNA no.": 3, "NF-kB translocation z-score, replicate mean": -1.3, "outcome": "inactive"}
{"Target gene": "Mapk1 (mitogen-activated protein kinase 1)", "siRNA no.": 4, "NF-kB translocation z-score, replicate mean": 0.00527, "outcome": "inactive"}
{"Target gene": "Mapk1 (mitogen-activated protein kinase 1)", "siRNA no.": 5, "NF-kB translocation z-score, replicate mean": -0.485, "outcome": "inactive"}
{"Target gene": "Mapk1 (mitogen-activated protein kinase 1)", "siRNA no.": 6, "NF-kB translocation z-score, replicate mean": -2.44, "outcome": "active"}

Reformatted: 4 of the entries above.
Target gene,siRNA no.,"NF-kB translocation z-score, replicate mean",outcome
Elk4 (ETS transcription factor ELK4),2,-0.24,inactive
Elk4 (ETS transcription factor ELK4),3,-0.518,inactive
Elk4 (ETS transcription factor ELK4),4,-0.136,inactive
Elk4 (ETS transcription factor ELK4),5,0.0152,inactive
